Measurements as given in the supplement of paper PMC4683952.
The other results are listed elsewhere or left out. No stated cut-off is given here; in the data, active = 2 or more and inactive = the rest. Most values lie within the scatter of the assay; repeated measurements hardly agree.

The molecules below were run on Lgr5 (MarsCy1-Lgr5-EGFP, U2OS) (assay: cell-surface Lgr5 expression (SCi1 fluorescence, background-subtracted) relative to WT DMSO (fold of DMSO control); higher = more Lgr5 at the plasma membrane). Conditions: U2OS MarsCy1-Lgr5-EGFP stable; treatment time: overnight; library: ActiProbe-5K (TimTec); 25 µM.
For `Oc1[nH]c2ccc(Br)cc2c1OCc1ccncc1`, the “cell-surface Lgr5 expression” value was inactive: 1.07. `Fc1ccc(-c2cc(C(F)(F)C(F)F)[nH]n2)cc1` was tested, and the “cell-surface Lgr5 expression” value was inactive: 0.867. For `Cc1ccc(C(C2=C(O)CC(C)(C)CC2=O)C2C(=O)CC(C)(C)CC2=O)o1` (stereo unspecified), the “cell-surface Lgr5 expression” value was inactive: 1.16. For `CC(C)CNc1ncnc2sc3c(c12)CCCC3`, the “cell-surface Lgr5 expression” value was inactive: 1.26. `O=[N+]([O-])c1ccc2nc(O)cnc2c1` was tested, and the “cell-surface Lgr5 expression” value was inactive: 1.03. `c1ccc(CCn2c(-c3ccccc3)cs/c2=N/c2ccccc2)cc1` was tested, and the “cell-surface Lgr5 expression” value was inactive: 0.86. For `OC1CC(C(F)(F)F)Oc2ccc(Cl)cc21` (stereo unspecified), the “cell-surface Lgr5 expression” value was inactive: 1.48. In the case of `Cc1cc(=O)[nH]c2c1c(O)nn2C1CCCCC1`, the “cell-surface Lgr5 expression” value is reported as inactive: 1.33. With `Nn1c(S)nnc1C(O)c1ccccc1` (stereo unspecified) the “cell-surface Lgr5 expression” value was inactive: 1.04. With `Cc1cc(O)nc(SCc2ccon2)n1` the “cell-surface Lgr5 expression” value was inactive: 1.1. In the case of `O=c1nc(C(F)(F)F)cc(/C=C\c2c[nH]nc2-c2cccs2)[nH]1`, the “cell-surface Lgr5 expression” value is reported as inactive: 0.933. For `O=C1C=CC(=O)N1SSN1C(=O)C=CC1=O`, the “cell-surface Lgr5 expression” value was inactive: 0.303. `CC(=O)NC/C(C)=N/NC(=O)OC(C)(C)C` was tested, and the “cell-surface Lgr5 expression” value was inactive: 1.22. In the case of `CCNC(=S)Nc1n[nH]c2nc(Cl)cc(C)c12`, the “cell-surface Lgr5 expression” value is reported as inactive: 0.971. For `O=C([O-])CCCc1c[nH]c2ccccc12.[K+]`, the “cell-surface Lgr5 expression” value was inactive: 1.06. In the case of `O=C1/C(=C\C2CCCO2)CC/C1=C\C1CCCO1` (stereo unspecified), the “cell-surface Lgr5 expression” value is reported as inactive: 1.35. In the case of `Cn1ncc(Cl)c1C(=O)NCCCn1cc(Br)cn1`, the “cell-surface Lgr5 expression” value is reported as inactive: 1.12. For `CCCc1cc(=O)nc(SCC(N)=O)[nH]1`, the “cell-surface Lgr5 expression” value was inactive: 0.968. In the case of `Cc1noc2c1/C(=N/O)CC(C)(C)C2`, the “cell-surface Lgr5 expression” value is reported as inactive: 1.43. In the case of `N#Cc1c(SCC(=O)NC23CC4CC(CC(C4)C2)C3)sc2c(O)cc(=O)[nH]c12`, the “cell-surface Lgr5 expression” value is reported as inactive: 1.3. With `Sc1nnc(COc2cccc3ccccc23)n1-c1ccccc1` the “cell-surface Lgr5 expression” value was inactive: 1.08. `Cl/C=C/COc1ccc(Cl)cc1` was tested, and the “cell-surface Lgr5 expression” value was inactive: 1.1. For `CCCCOCC(O)CN1CCCCC1` (stereo unspecified), the “cell-surface Lgr5 expression” value was inactive: 0.949. In the case of `COc1ccc(OC)c(C2=Nn3c(nnc3-c3ccccc3F)SC2)c1`, the “cell-surface Lgr5 expression” value is reported as inactive: 1.04. `CC1=C(C(=O)OCC2CCCO2)C(c2ccc(C)o2)C2=C(CC(C)(C)CC2=O)N1` (stereo unspecified) was tested, and the “cell-surface Lgr5 expression” value was inactive: 1.11. With `CS(=O)(=O)N1CCN(c2ccc(F)cc2)CC1` the “cell-surface Lgr5 expression” value was inactive: 0.943. For `CCC(=O)c1c(N)cc(C)oc1=O`, the “cell-surface Lgr5 expression” value was inactive: 1.07. For `CN1C(=O)C(CCC(N)=O)NC1=S` (stereo unspecified), the “cell-surface Lgr5 expression” value was inactive: 1.03. For `Nc1ncnc2[nH]c(Sc3ncnc4ccccc34)nc12`, the “cell-surface Lgr5 expression” value was inactive: 1.13. For `Cl.c1ccc(CC2=NCCN2)cc1`, the “cell-surface Lgr5 expression” value was inactive: 0.861. With `FC(F)(F)c1ccccc1/C=N\N1CCN(C2c3ccccc3-c3ccccc32)CC1` the “cell-surface Lgr5 expression” value was inactive: 1.41.
